This note sets out measurements from the supplement of paper PMC10338343.

± gives the standard deviation. The list shows a part of the results, in another mix than the full data. Many entries were measured with a wide error. This is one part of the list.

Experiment [1] deals with MILI (PIWIL2) piRISC loaded with L1MC piRNA (26 nt). The experiment is described as follows: pre-steady-state target cleavage rate (min^-1); higher = faster piRNA-guided slicing of the target. Conditions: guide: L1MC piRNA 5'p-UAACUAAAUACUAUGCAAGCUGUAGG
Put shortly: (§1)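 Cleave-'n-Seq: 1 nM active affinity-purified piRISC with one synthetic guide and 0.1 nM transcribed, DNA-blocked target RNA library were mixed, with or without 500 nM GTSF1 partner protein, in HEPES–potassium acetate buffer at 33 °C for 0–8 or 0–960 min. Uncleaved targets were sequenced and normalised to depth and to weakly complementary targets, three trials were pooled, and k3 was capped at 0.0001 min^-1. The pre-steady-state cleavage rate was fitted […].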

Experiment [2] relates to MIWI (PIWIL1) piRISC loaded with L1MC piRNA (30 nt). The experiment is described as above. Conditions: guide: L1MC piRNA 5'p-UAACUAAAUACUAUGCAAGCUGUAGGUCCU; auxiliary factor: none (no GTSF1). An outline of the steps: as §1
Experiment [3] concerns EfPiwi piRISC loaded with L1MC piRNA (26 nt). Put plainly: pre-steady-state target cleavage rate (min^-1); guide: L1MC piRNA 5'p-UAACUAAAUACUAUGCAAGCUGUAGG; MIWI and MILI are mouse PIWI proteins and EfPiwi is from a freshwater sponge; tags in brackets are library labels; higher = faster piRNA-guided slicing of the target. An outline of the steps:
as §1

Where [4] appears, read: auxiliary factor: none (no GTSF1).
Setting [5] is: auxiliary factor: 500 nM Ephydatia muelleri Gtsf1.
Setting [6] is: auxiliary factor: 500 nM mouse GTSF1.
[7] abbreviates: auxiliary factor: none (no Gtsf1).

Regarding UCCUGCUACAGCAAGCAUAGUAUUUAGAAA, the “pre-steady-state target cleavage rate” value was 0.00133 ± 0.0055 in experiment [1] (setting [4]), 0.000402 ± 0.0082 in experiment [2] and 0.00266 ± 0.0039 in experiment [3] (setting [5]).
Turning to UCCUGGAUGUCGUUGCAUAGAAAUUAGUUA, the results for the “pre-steady-state target cleavage rate” value in experiment [1] (setting [4]), in experiment [2] and in experiment [3] (setting [5]) were 0.000682 ± 0.0084, 0.000928 ± 0.0075 and 0.00142 ± 0.0063, respectively.
Taken in the same sequence, the figures for UCCUGGUACAGGAUGCAUAGUAUUUUCAAA were 0.00058 ± 0.0084, 0.000123 ± 0.025 and 0.00166 ± 0.003.
As for UCCUGGAUGUCGAACCAUACUAUUUACUUA, the “pre-steady-state target cleavage rate” value in experiment [1] (setting [6]) came out at 0.000222 ± 0.024.
For UCCUGGAUGUCGAACGUAUCUAUUUACAUA, in experiment [1] (setting [6]), the “pre-steady-state target cleavage rate” value came to 0.000186 ± 0.019.
With UCCUGGAACAGCUUGCAUACUAUUUUCAAA, the “pre-steady-state target cleavage rate” value in experiment [1] (setting [4]) is 0.00121 ± 0.0049; in experiment [2] it was 0.00182 ± 0.0028; in experiment [3] (setting [5]), 0.00152 ± 0.0025.
As to UCCUGGAUGUCGAUGAAUAGUAUUUAGUUA, the “pre-steady-state target cleavage rate” value in experiment [1] (setting [4]) was 0.000617 ± 0.0065; in experiment [2], 0.000335 ± 0.016; in experiment [3] (setting [5]) it was 0.0003 ± 0.012.
The corresponding values for UCCUGGAUGUCCUUCCUUAGUAUUUAGUUA are 0.00072 ± 0.0075, 0.000665 ± 0.0097 and 0.000881 ± 0.0065.
The corresponding values for UCCUGGAUGUCCUUGGAUAGUAUUUACUUA are 0.000693 ± 0.0069, 0.000228 ± 0.028 and 0.000163 ± 0.039.
For UCCUGGAUGAGCUUGCAUAGUAUUAAGAAA, the results for the “pre-steady-state target cleavage rate” value in experiment [1] (setting [4]), in experiment [2] and in experiment [3] (setting [7]) were 0.00131 ± 0.0048, 0.00139 ± 0.0047 and 0.000283 ± 0.034, respectively.
For UCCUGGAUCAGCUUCCAUAGUAUUUUCAAA, the “pre-steady-state target cleavage rate” value amounted to 0.000252 ± 0.025 in experiment [1] (setting [4]), 0.000202 ± 0.012 in experiment [2] and 0.000752 ± 0.0065 in experiment [3] (setting [5]).
Taken in the same sequence, the figures for UCCUCCUACAGCUUCCAUAGUAUUUAGUAA were 0.000874 ± 0.0058, 0.00145 ± 0.0034 and 0.0037 ± 0.0018.
Taken in the same sequence, the figures for UCCUGGAUGUGCUUGCCAUAGUAUUUAGUUA were 0.00141 ± 0.0061, 0.00112 ± 0.0071 and 0.000944 ± 0.0044.
Regarding UCCUGCUAGAGCUUGCAUAGUAUUUUCAAA, the “pre-steady-state target cleavage rate” value in experiment [1] (setting [4]) was determined as 0.00123 ± 0.0053; in experiment [2] it was 0.00187 ± 0.0042; in experiment [3] (setting [5]), 0.00315 ± 0.0025.
The corresponding values for UCCUCCUACAGCUUCCAUAGUAUUUACAAA are 0.000447 ± 0.012, 0.000874 ± 0.0074 and 0.00265 ± 0.0026.
In the case of UCCUCCUAGAGCUUCCAUAGUAUUUAGUUA, the results for the “pre-steady-state target cleavage rate” value in experiment [1] (setting [4]), in experiment [2] and in experiment [3] (setting [7]) were 0.00118 ± 0.0046, 0.0022 ± 0.0027 and 0.000373 ± 0.012, respectively.
Consider UCCUGGAUCAGCUUGCAUAGUAAAUACAAA, for which the “pre-steady-state target cleavage rate” value amounted to 0.00115 ± 0.0053 in experiment [1] (setting [4]), 0.00139 ± 0.0038 in experiment [2] and 0.000626 ± 0.0074 in experiment [3] (setting [5]).
Taken in the same sequence, the figures for UCCUGGUACAGCUUGCAUAGAAUUUACAAA were 0.000582 ± 0.014, 0.000447 ± 0.0076 and 0.00092 ± 0.0046.
Consider UCCUGGAUCAGCUUGCAUAGUUAAUUCAAA, for which the “pre-steady-state target cleavage rate” value came out at 0.000934 ± 0.0058 in experiment [1] (setting [4]), 0.00105 ± 0.0046 in experiment [2] and 0.000318 ± 0.011 in experiment [3] (setting [5]).
The corresponding values for UCCUGGAUGUCGAAGCAUAGUAUUGAGUUA are 0.00139 ± 0.0044, 0.000873 ± 0.0081 and 0.000234 ± 0.016.
The corresponding values for UCCUGCUACAGCUUCCAUAGUAAUUAGUUA are 0.000722 ± 0.009, 0.00137 ± 0.0059 and 0.00176 ± 0.0022.
On to UCCUGGAUGUCGAACCAAUCUAUUUAGUUA, for which the “pre-steady-state target cleavage rate” value in experiment [1] (setting [6]) worked out at 0.000112 ± 0.015; in experiment [2], 0.000101 ± 0.023; in experiment [3] (setting [5]), 0.000227 ± 0.02.
On to UCCUGGAUGUCGUUGCAUAGUAUUAAGAUA, for which the “pre-steady-state target cleavage rate” value amounted to 0.000781 ± 0.0066 in experiment [1] (setting [4]), 0.000503 ± 0.013 in experiment [2] and 0.000171 ± 0.03 in experiment [3] (setting [5]).
For the sequence UCCUCCUACAGCAUGCAUAGUAUUUACAAA, the “pre-steady-state target cleavage rate” value in experiment [1] (setting [4]) is 0.00134 ± 0.0037; in experiment [2] it was 0.00139 ± 0.003; in experiment [3] (setting [5]) it was 0.00397 ± 0.0026.
Taken in the same sequence, the figures for UCCUCCUACAGCUUGCAUAGUAUUUAUUA were 0.00138 ± 0.0052, 0.00152 ± 0.0046 and 0.00539 ± 0.0031.
The corresponding values for UCCUGGUAGAGCUUGCAUAGUAUUUUCAAA are 0.00111 ± 0.0056, 0.00315 ± 0.0039 and 0.00153 ± 0.0036.
For the sequence UCCUCCUACAGGAUGCAUAGUAUUUACAAA, the “pre-steady-state target cleavage rate” value in experiment [1] (setting [4]) is 0.00071 ± 0.0078; in experiment [2], 0.00066 ± 0.0078; in experiment [3] (setting [5]) it was 0.0028 ± 0.0027.
Taken in the same sequence, the figures for UCCUGGAUGUCGAAGCAUAGUUAAUAGUUA were 0.000624 ± 0.01, 0.000607 ± 0.0082 and 0.000783 ± 0.0083.
The corresponding values for UCCUGGAACAGCUUGCAUUCAAUUUAGAAA are 0.000405 ± 0.014, 0.000482 ± 0.0097 and 0.00037 ± 0.0084.
With UCCUGCUACAGCUACCAUAGUAUUUUCAAA, the “pre-steady-state target cleavage rate” value in experiment [1] (setting [4]) is 0.000858 ± 0.0055; in experiment [2], 0.000561 ± 0.013; in experiment [3] (setting [5]), 0.000459 ± 0.0095.
Taken in the same sequence, the figures for UCCUGGAUCAGCAUGCAUAGUAUUUUCAAA were 0.00126 ± 0.0035, 0.00084 ± 0.0078 and 0.000663 ± 0.0057.
As for UCCUGGUACAGCUUGCAUAGUAAUAAGUUA, the “pre-steady-state target cleavage rate” value in experiment [1] (setting [4]) amounted to 0.00246 ± 0.0031; in experiment [2] it was 0.00209 ± 0.0028; in experiment [3] (setting [5]) it was 0.00546 ± 0.0031.
The corresponding values for UCCUGGAUGUGCUUGGAUAGUAUUUAGAAA are 0.000428 ± 0.0097, 0.000918 ± 0.008 and 0.00162 ± 0.0038.
Consider UCCUGGAUGUCCUUGGAUAGUAAUUAGUUA, for which the “pre-steady-state target cleavage rate” value in experiment [1] (setting [6]) turned out to be 0.411 ± 0.1; in experiment [2], 0.000879 ± 0.0081; in experiment [3] (setting [5]), 0.000913 ± 0.0074.
For UCCUGGAUGUCCUUGCAUACUAUUUUGUUA, the “pre-steady-state target cleavage rate” value is 0.00106 ± 0.0049 in experiment [1] (setting [4]), 0.00106 ± 0.0056 in experiment [2] and 0.000276 ± 0.011 in experiment [3] (setting [5]).
For the sequence UCCUGCUACAGCUUGCAUAGCUAUUUAGUUA, the figures for the “pre-steady-state target cleavage rate” value in experiment [1] (setting [4]), in experiment [2] and in experiment [3] (setting [5]) were 0.00143 ± 0.0053, 0.00161 ± 0.0073 and 0.00152 ± 0.0025, respectively.
Consider UCCUGGAUGUCCUUGCAUACUAUUUACUUA, for which the “pre-steady-state target cleavage rate” value came to 0.00131 ± 0.0037 in experiment [1] (setting [4]), 0.0012 ± 0.0052 in experiment [2] and 0.000227 ± 0.011 in experiment [3] (setting [5]).
Taken in the same sequence, the figures for UCCUGGAAGAGCUUGCAUAGUAUUUACAAA were 0.00136 ± 0.0052, 0.00255 ± 0.0041 and 0.00396 ± 0.0018.
Taken in the same sequence, the figures for UCCUGGAUGUCCUUGCAUAGUAUUUCAGUUA were 0.00248 ± 0.0036, 0.00232 ± 0.0034 and 0.000606 ± 0.0075.
On to UCCUGGAUGUCGAAGGAUAGUAUUUUGUUA, for which the “pre-steady-state target cleavage rate” value in experiment [1] (setting [4]) was 0.000123 ± 0.037; in experiment [2] it was below 0.0001; in experiment [3] (setting [7]), below 0.0001.
In the case of UCCUGGAUGUCCUUGCAAAGUAUUUUGUUA, the figures for the “pre-steady-state target cleavage rate” value in experiment [1] (setting [4]), in experiment [2] and in experiment [3] (setting [7]) were 0.000809 ± 0.0083, 0.000942 ± 0.0086 and 0.000134 ± 0.029, respectively.
In the case of UCCUGCUACAGCUUGCAUAGUUUUUACAAA, the “pre-steady-state target cleavage rate” value in experiment [1] (setting [4]) came to 0.00123 ± 0.0047; in experiment [2], 0.00234 ± 0.0037; in experiment [3] (setting [5]), 0.00339 ± 0.0026.
Taken in the same sequence, the figures for UCCUGGAUGUCGAUGCUUAGUAUUUUGUUA were 0.000986 ± 0.0069, 0.00036 ± 0.014 and 0.000312 ± 0.0095.
The corresponding values for UCCUGGAUCAGCUACGAUAGUAUUUAGAAA are 0.000356 ± 0.015, 0.000421 ± 0.0064 and 0.000219 ± 0.016.
Taken in the same sequence, the figures for UCCUGGAACAGCUUGCAGUAGUAUUUAGUUA were 0.00147 ± 0.004, 0.00198 ± 0.0037 and 0.00105 ± 0.0046.
Consider UCCUGCUAGUGCUUGCAUAGUAUUUAGAAA, for which the “pre-steady-state target cleavage rate” value in experiment [1] (setting [4]) came to 0.000523 ± 0.0091; in experiment [2], 0.00156 ± 0.0035; in experiment [3] (setting [5]) it was 0.00258 ± 0.0014.
The corresponding values for UCCUGCUACAGCUUGGUUAGUAUUUUCAAA are 0.000647 ± 0.012, 0.000629 ± 0.011 and 0.000418 ± 0.006.
